Reference: article PMC7819943, “Rice protein-binding microarrays: a tool to detect cis-acting elements near promoter regions in rice”
This is one part of the list.

The chains behind the UniProt entries cited, without tags or fusion partners.
UniProt Q0JBA9, entry or part of it: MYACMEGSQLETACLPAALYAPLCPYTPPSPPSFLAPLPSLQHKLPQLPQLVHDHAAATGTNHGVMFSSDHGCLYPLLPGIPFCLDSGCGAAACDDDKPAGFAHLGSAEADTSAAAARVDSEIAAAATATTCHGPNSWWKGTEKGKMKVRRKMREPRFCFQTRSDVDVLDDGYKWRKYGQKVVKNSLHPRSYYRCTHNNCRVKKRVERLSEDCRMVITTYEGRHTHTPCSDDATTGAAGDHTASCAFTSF

target: OsWRKY34 (Oryza sativa, UniProt Q0JBA9 1-250); test: protein-binding microarray (RPBM); PBS, 2% BSA, 51.3 ng/ul salmon testes DNA, 50 uM zinc acetate, 200 nM TF, 25 C, 1 h; high values mean tight binding; conditions: protein: recombinant; tags: N-terminal polyhistidine and DsRed monomer fusion (pET32a); label: CyDye5-dUTP incorporated in the synthesized complementary strand; 3' TTTTT single-stranded linker to array surface; dsDNA, one strand shown
Method in brief: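 Transcription factors were each fused at the N-terminus to a polyhistidine tag plus DsRed and expressed in E. coli BL21-CodonPlus before Ni–NTA purification. Binding to a double-stranded custom Agilent array was carried out with 200 nM protein at 25 °C for 1 h in PBS, 2% BSA, salmon testes DNA and 50 µM zinc acetate. The binding signal is per-feature fluorescence intensity, in arbitrary units, on an Axon 4000B scanner.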

Sequence | binding signal
GTAGCTGTCGAACGTGTCGTCCTAGACCTTACTGCCTCCACGGAGTCACCTAGTGCAG | 12500 fluorescence intensity (a.u.)
CTTCAACTCAAATGTCATCCGATGTCTGTTTCGTACCCGGCGGAGTCACCTAGTGCAG | 8830 fluorescence intensity (a.u.)
ACTCTAGAGCTTTTCTTTGGTTTGCTTATCCTTATGCTTACGGAGTCACCTAGTGCAG | 10400 fluorescence intensity (a.u.)
TATTACCCGCATTGTTCAACTGCCATTTCTCTCCTCAATTCGGAGTCACCTAGTGCAG | 8610 fluorescence intensity (a.u.)
CACTCTTCCGCCGCGCTATATAAACCGCGCGAGGCGTCGTCGGAGTCACCTAGTGCAG | 9460 fluorescence intensity (a.u.)
GCACAAACTTCCTTACTGTTCACACATTTTCAACTGTCCTCGGAGTCACCTAGTGCAG | 8330 fluorescence intensity (a.u.)
AAACGATACTGATCCCACCTAGTATCCTAATTTTTGTAGTCGGAGTCACCTAGTGCAG | 9100 fluorescence intensity (a.u.)
ATTTTAAGACGGATGGAATAGTGGTGTGTAGTTTCAAAATCGGAGTCACCTAGTGCAG | 8280 fluorescence intensity (a.u.)
TTGGTTTTGGTTTGGGTGGTTGATGTGTGGGTGGTGGTGGCGGAGTCACCTAGTGCAG | 19000 fluorescence intensity (a.u.)
ATTATTTTTGGTTGTTCTATTTATTTTCTTAAAATAATTCCGGAGTCACCTAGTGCAG | 11300 fluorescence intensity (a.u.)
AGGCTTTTTTTTTTACATTTTTCACCAGGGCTTTGCTCGCCGGAGTCACCTAGTGCAG | 9890 fluorescence intensity (a.u.)
GTACTCGCAAAATCCTTCGCGACCAAGGTACCTAATGTTGCGGAGTCACCTAGTGCAG | 8710 fluorescence intensity (a.u.)
ACGTTTTGTACTTGGTGTGACTCCTAACTGCCTACTAAGCCGGAGTCACCTAGTGCAG | 9200 fluorescence intensity (a.u.)
AATGCGCCTCGCATCGCCCAAGTAGTCGTCTCTAAATTCTCGGAGTCACCTAGTGCAG | 8360 fluorescence intensity (a.u.)
TGCAAACTTACCACCCAATCCGCATGCCTTCTCTAATGCACGGAGTCACCTAGTGCAG | 8990 fluorescence intensity (a.u.)
CTCCCACCGCGCCGCCTCTCCTCTCCACCACCCAGTGAACCGGAGTCACCTAGTGCAG | 9490 fluorescence intensity (a.u.)
TATGATTGACGATGTGGGAGGGTGTAGGGAAATAGTTGTCCGGAGTCACCTAGTGCAG | 8340 fluorescence intensity (a.u.)
ACGTGGGTGGTGACCGGAATCGGGGTGGTAAAAATCCAAACGGAGTCACCTAGTGCAG | 8630 fluorescence intensity (a.u.)
GGTGGTGGTGGTGCCGCTGCTCCAAGCCGCGACCCTCCAACGGAGTCACCTAGTGCAG | 8460 fluorescence intensity (a.u.)
CACTCCACTCCAAAACATCTCAATGTCCTTCTTTATATATCGGAGTCACCTAGTGCAG | 8080 fluorescence intensity (a.u.)
ACGACAGATGCATCCTCCGCATACACTTCAGATTTGCTATCGGAGTCACCTAGTGCAG | 8320 fluorescence intensity (a.u.)

Sequence | binding signal
GTCGTTGACTTTTTAACCACAACGTTTGACCATTCGTCTTCGGAGTCACCTAGTGCAG | 21800 fluorescence intensity (a.u.)
CCTGTGCGGTCCTTTGACAAGGTCTTCGCTTGGCGAAGTTCGGAGTCACCTAGTGCAG | 8200 fluorescence intensity (a.u.)
ACTTTATTTTGTGGGCTGAGATAGTAAATGGACTGAAAAACGGAGTCACCTAGTGCAG | 8080 fluorescence intensity (a.u.)
CGCCAGCTAGTTTTGTTTTTGCTGCGGCAACTGCGCTACTCGGAGTCACCTAGTGCAG | 8060 fluorescence intensity (a.u.)
TACCTACTCCTAGTTGCATGATATGCTCTTCTTCTTCTCTCGGAGTCACCTAGTGCAG | 10600 fluorescence intensity (a.u.)
GCCGCTGCTCCTGTTTGTCATTAGGGTAGGCCCGCGTGAACGGAGTCACCTAGTGCAG | 8270 fluorescence intensity (a.u.)
GAATTTGCTCTATCATGAAGTGATACATCATTAGCGGCAGCGGAGTCACCTAGTGCAG | 8710 fluorescence intensity (a.u.)
CGCATCTTCCGCCGCCTCTGCCTCCGCCTCCGCCCTGGCTCGGAGTCACCTAGTGCAG | 9320 fluorescence intensity (a.u.)
AATGTTTCTTATTTGGTTTTAAATTTCAGCGAAATTTTGACGGAGTCACCTAGTGCAG | 8180 fluorescence intensity (a.u.)
TTAATACCTCCATTTATTCTTGTTGCATGCACGGTATTAACGGAGTCACCTAGTGCAG | 9900 fluorescence intensity (a.u.)
AATTCAGTTTAGTATCATGATTTTTTGGATATTGTTTTAACGGAGTCACCTAGTGCAG | 8230 fluorescence intensity (a.u.)
AGCGTGCCTCAACTTCTCCAACTCCGCGTGGCTGCTCGCCCGGAGTCACCTAGTGCAG | 8050 fluorescence intensity (a.u.)
TTTTCTCTTACATCTTGGGCTTTTATATGGGCCGGTGGCTCGGAGTCACCTAGTGCAG | 11100 fluorescence intensity (a.u.)
CGCACTCACCCCGTCACCCGACGCCGCCGACTCCTCCCTCCGGAGTCACCTAGTGCAG | 9000 fluorescence intensity (a.u.)
AACATTACTACCTCCATCCTAAAATACATTTTTTTATCCACGGAGTCACCTAGTGCAG | 8500 fluorescence intensity (a.u.)
AAAGAAAATCATCTCGTTTCTATCTATCATTGTCACTTTTCGGAGTCACCTAGTGCAG | 11000 fluorescence intensity (a.u.)
AACCTTTTCTTTCTTTCTTCACTTTGGTTGCGTTGCGTCTCGGAGTCACCTAGTGCAG | 24200 fluorescence intensity (a.u.)
TTGATTTCTTCTGTTTGGTCCAAAACCGTGTGTTGCTCTTCGGAGTCACCTAGTGCAG | 10900 fluorescence intensity (a.u.)
AAACTTCCAACTTTTCCGTCATATTGTTCCAATTTTCTTCCGGAGTCACCTAGTGCAG | 13200 fluorescence intensity (a.u.)
GATGTGGTTTATCCTCCTTACTCTTGAACCTATGAACACTCGGAGTCACCTAGTGCAG | 9480 fluorescence intensity (a.u.)
TTTTATAATATGTTATTGTAGCAGTTTTTGTGAGCTATTACGGAGTCACCTAGTGCAG | 8100 fluorescence intensity (a.u.)

Look-ups from the results shown:
Entry of TTGGTTTTGGTTTGGGTGGTTGATGTGTGGGTGGTGGTGGCGGAGTCACCTAGTGCAG under binding signal: 19000 fluorescence intensity (a.u.)
Entry of AATGCGCCTCGCATCGCCCAAGTAGTCGTCTCTAAATTCTCGGAGTCACCTAGTGCAG under binding signal: 8360 fluorescence intensity (a.u.)
